{
  "source": "patent EP0464022B1",
  "about": "“INSULINOTROPIC HORMONE” (THE GENERAL HOSPITAL CORPORATION, priority 1989, dated 2000)",
  "test": "Peptide level in rat blood by radioimmunoassay",
  "type": "in vivo",
  "note": "Where “and” joins values, the source holds several entries; their conditions need not be identical. Equal values may be shown once.",
  "data": [
    {"substance": "GLP-1 (1-37): GLP-1 polypeptide having all amino acids from 1 (N-terminus) through 37 (C-terminus)", "values": [
      {"measurement": "level in rat portal blood", "value": "approximately 150 pg/ml and ~50 pM"},
      {"measurement": "level in peripheral blood", "setting": "rat", "value": "50 pg/ml and 15 pM"}
    ]}
  ]
}
